Results of single-concentration screens

Measurements from “University of Dundee, Small-Polar-MMV Screening Library” (2021), ChEMBL document CHEMBL3988442.

A: 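Whole-parasite assay of Trypanosoma brucei over 72 hours; the read-out is not stated. Concentration: 30 µM. The record gives no direction; compounds that gave an IC50 in retests scored well above the rest, so higher reads as stronger inhibition. Values scatter widely below zero; nearly all retest evidence comes from the higher of the two concentrations used. Of about 64,000 compounds tested this way, about 940 (1.5%) reached 50% or more in at least one test.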
B: 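Cell assay of Leishmania donovani living inside macrophages; the read-out is not stated. Tested at 30 µM. Direction is inferred from retests: higher values go with stronger inhibition. Size under these conditions: about 69,000 compounds, about 1,000 of them at 50% or above in at least one test.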
C: 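Assay of Toxoplasma gondii numbers, read through their beta-galactosidase reporter with a colour substrate. Tested at 10 µM. The record gives no direction; the compounds picked for IC50 retests had high values, so higher reads as fewer parasites. About 67,000 compounds were tested under these conditions; 0.38% (about 260) showed 50% or more at least once.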

Each number is a percent effect as filed.
The record does not define 0% and 100%; most values in the screen are far below 50% and negative numbers occur (in some assays of this library far below -100).
The compounds are a random part of those screened.
Two or more numbers in one place are separate tests of the same structure; such repeats can differ widely.

compound: CC(C)n1cc(CN2CCCN(C(=O)c3ccoc3)CC2)cn1
A: -54.59%
B: -30.77%
C: -7.85%

compound: CN(Cc1nc2ccccc2n1C)C(=O)CCc1cscn1
A: -2.921%
B: 0.9134%
C: -18.4%

compound: Cc1ccc(C(=O)N2CCCn3nc(CCC(=O)O)cc3C2)cc1Cl
A: -22.54%
B: -1.074%
C: -9.57%

compound: Cc1ccccc1-c1cncc(C2CCN(C)CC2)n1
A: 23.49%
B: 38.34%
C: 27.61%

compound: Cc1oc(CNC(=O)Cc2cccc(OC(F)F)c2)cc1C(=O)O
A: -62.84%
B: -8.761%
C: 1.129%

compound: CN1CCN(Cc2cccnc2)C(=O)C12CCN(Cc1ccco1)CC2.O=C(O)C(F)(F)F.O=C(O)C(F)(F)F.O=C(O)C(F)(F)F
A: -12.82%
B: -2.179%
C: -11.58%

compound: CCOC(=O)c1ccc(NC(=O)Cn2cc(I)cn2)cc1
A: -7.233%
B: 2.225% and -27.84%
C: 2.18%

compound: O=C(O)C(F)(F)F.[H][C@@]12CCCO[C@]1([H])[C@H](Oc1ccccn1)CN2S(=O)(=O)N(C)C
A: 4.442%
B: 5.5%
C: -3.991%

compound: [H][C@@]12OCCN(C(=O)CCOc3ccccc3)[C@@]1([H])CC[C@@H]2OC
A: -52.76%
B: 32.35%
C: -12.01%

compound: Cc1ccc(-c2nnc(CCC(=O)N3CCCC3c3ccc[nH]3)o2)cc1 (configuration not stated)
A: -11.89%
B: 10.86%
C: -2.009%

compound: CC(=O)N1CCN(C(=O)c2cnc(OC(C)C)c(Cl)c2)CC1
A: -3.997%
B: 12.62%
C: 2.214%

compound: CC(O)CN1CCC(CN(C)Cc2ccc(C#N)cc2F)CC1 (configuration not stated)
A: -47.4%
B: 16.57%
C: 2.05%

compound: Nc1nnc(CCNc2ncnc3c2CCN(C(=O)C2CC2)C3)s1
A: -109.9%
B: -8.49%
C: -2.271%

compound: COc1ccc(C[C@H]2CN(C(=O)c3ccc(C)nc3)CC[C@@H]2OC)cc1.O=C(O)C(F)(F)F
A: 11.89%
B: 18.44%
C: -0.9985%

compound: Cn1c(SCC2OCCc3ccccc32)n[nH]c1=O (configuration not stated)
A: -0.3753%
B: -14.11%
C: 0.5882%

compound: O=C(O)C(F)(F)F.O=C(O)C(F)(F)F.[H][C@]12CCN(c3ncccn3)C[C@@]1([H])OCCN(Cc1ccncc1)C2
A: -15.11%
B: 25.75%
C: 0.4759%

compound: CCc1csc(C2CCCN(C(=O)c3ccc(=O)n(CC)n3)C2)n1 (configuration not stated)
A: 3.342%
B: -5.796%
C: -15.59%

compound: Cc1cnc(N2CCCC3(CCCN(C)C3)C2)nc1 (configuration not stated)
A: 27.75%
B: 40.17%
C: 8.591%

compound: CS(=O)(=O)N1CCC(NCC2(N3CCOCC3)CCCCC2)CC1
A: -50.45%
B: 23.9%
C: 18.29%

compound: [H][C@@]12CCN(C(=O)C3CC(F)(F)C3)C[C@]1(COC)CCO2
A: -12%
B: 9.727%
C: -8.029%